These results are taken from patent US20260062442A1, “COMPOSITIONS AND METHODS FOR PURIFYING ANTIGEN-BINDING ANTIBODY FRAGMENTS USING PEPTIDE LIGANDS” (North Carolina State University, priority 2022, published 2026).

In one data set the test system is engineered Fabs. The experiment in a line: Purification of engineered Fabs from CHO-K1 cell culture fluids (summary statement). To be noted: range over feedstocks.
A further data set deals with human Fab-λ. The experiment in a line: Dynamic binding of human Fab-λ in non-competitive condition on peptide-Toyopearl resins. To be noted: Fab at 1 mg/mL in PBS, 0.1 mL column, residence time 2 min, elution at pH 4.
For a further data set, the system named is human polyclonal Fab. Kind of data set: Purification of human polyclonal Fab from null CHO-S CCCF.
In a further data set the test system is human Fab-κ. Kind of data set: Dynamic binding of human Fab-κ in non-competitive condition on peptide-Toyopearl resins. To be noted: Fab at 1 mg/mL in PBS, 0.1 mL column, residence time 2 min, elution at pH 4. The protocol: Dynamic binding of human Fab-κ and Fab-λ in non-competitive condition. The peptides listed in Table 3 were synthesized on Toyopearl resins as described herein, and the resulting adsorbents were packed into 0.1 mL (30×2.1 mm) columns, installed on a Waters Alliance 2695 HPLC system (Milford, MA), and equilibrated with PBS at pH 7.4. […] The subsequent chromatographic steps of washing with PBS, elution with 0.2 M acetate buffer pH 4, regeneration with 0.1 M glycine buffer pH 2.5, and equilibration with PBS were all performed at 348 cm/h. The dynamic binding protocol was repeated with 50 μL of human Fab-κ and Fab-λ, both at 1 mg/mL in PBS. The column effluent was continuously monitored at 280 nm by UV spectrophotometry. The yield was determined by peak area analysis and determined by taking the area of the elution peak divided by the flow-through, elution, and regeneration peak areas. Finally, the dynamic binding capacity at 10% flowthrough of […]-Toyopearl resin was measured via continuous loading of a solution of human polyclonal Fab at either 1, 2, or 5 mg/mL in PBS at the linear velocity of either 173, 87, or 35 cm/h, corresponding to the residence times (RT) of 1, 2, and 5 min, until reaching saturation of the adsorbent. The dynamic binding capacity of Protein L-agarose resin was measured via continuous loading of human polyclonal Fab at 1 mg/mL in PBS at the linear velocity of either 173 or 87 cm/h, corresponding to RT of 1 and 2 min, until reaching saturation of the adsorbent.

Another data set concerns monoclonal Fab-κ. To be noted: from an E. coli lysate; cited from earlier work.

With FRWNFHRNTFFP, in the data set with engineered Fabs, the purity was 89-96% and the yield was 93-96%. Besides, in the data set on human Fab-λ, the “Fab-λ Yield” value is given as 91%. In the data set on human polyclonal Fab, the “reduction of HCPs” value is recorded as 93 fold and the “reduction of host cell DNA” value worked out at 135 fold. Further, the “HCP LRV” value in the data set with human polyclonal Fab (anti-CHO HCP ELISA) is on record as around 1.97. Further, in the data set on human polyclonal Fab (host cell DNA), the “DNA LRV” value is given as around 2.13. Further, the yield in the data set with human polyclonal Fab (human Fab 1 mg/mL, HCP 0.135 mg/mL, anti-human Fab ELISA) came to 94.1%. The “Fab-κ Yield” value with human Fab-κ was 89%.

Take IIHRRAFWWFPN: the “Fab-λ Yield” value in the data set on human Fab-λ came to 66%. Also, the “Fab-κ Yield” value with human Fab-κ amounted to 55%.

As to IRHHNIWFNTIA, the “Fab-λ Yield” value in the data set with human Fab-λ turned out to be 42%. In addition, the “Fab-κ Yield” value with human Fab-κ came to 42%.

Consider NNWWRHARIINA, for which, in the data set on human Fab-λ, the “Fab-λ Yield” value amounted to 60%. Besides, in the data set with human Fab-κ, the “Fab-κ Yield” value was 19%.

With RWTIWPPNWHPP, the “Fab-λ Yield” value in the data set with human Fab-λ came out at 53%. Moreover, the “Fab-κ Yield” value in the data set on human Fab-κ was 40%.

Turning to “WIPNSEFEHERTK [B1, peptide ligand for monoclonal Fab-κ identified by Nascimento et al]”, in the data set with monoclonal Fab-κ, the “purity of Fab-κ A” value was “above 90%” and the “yield of Fab-κ A” value is recorded as 84%.
